Reference: patent publication US4656269A, “Histidine derivatives” (Kissei Pharmaceutical Co., Ltd., priority 1986, dated 1987)
For at least one compound, name, drawing or mass did not settle the structure.

Molecular target: T1, human renin (Homo sapiens, UniProt P00797)
T1 sequence (P00797 67-406): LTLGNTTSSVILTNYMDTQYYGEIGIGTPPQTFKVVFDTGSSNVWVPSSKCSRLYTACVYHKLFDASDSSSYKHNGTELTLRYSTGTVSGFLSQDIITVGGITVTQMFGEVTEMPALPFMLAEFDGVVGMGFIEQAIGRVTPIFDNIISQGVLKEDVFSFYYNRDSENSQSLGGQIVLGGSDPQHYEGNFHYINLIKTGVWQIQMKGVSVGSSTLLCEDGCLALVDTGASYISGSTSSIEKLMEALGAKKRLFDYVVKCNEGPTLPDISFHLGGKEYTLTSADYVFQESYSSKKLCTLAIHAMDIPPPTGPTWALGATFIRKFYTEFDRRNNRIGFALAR
Experiment: Human renin-sheep renin substrate reaction system in vitro (angiotensin I by radioimmunoassay)
Type: biochemical
Settings: pH 7.4, 15 minutes, 37° C., read-out: IC50 (molar concentration)
Procedure: Human renin-sheep renin substrate reaction system in vitro
To a mixture containing 200 μl of a 125 mM pyrophosphate buffer (pH 7.4), 25 μl of a 20 mM aqueous solution of L-phenylalanyl-L-alanyl-L-prolin as an angiotensin cnverting enzyme inhibitor, 50 μl of semipurified sheep renin substrate (2000 ng angiotensin I/ml), 50 μl of dimethyl sulfoxide solution of an amino acid compound of the present invention and 150 μl of deionized water was added 25 μl of purified human renin (20-30 ng angiotensin I/ml/hr. The mixture was incubated for 15 minutes on a water bath at 37° C., and the reaction mixture was allowed to stand for 5 minutes on a water bath at 100° C. to stop the reaction. After cooling, 200 μl of the solution were taken up and the amount of angiotensin I produced by the addition of renin was determined by radiommunoassay. The inhibitory effect was calculated by the following equation.
As a control, the same procedure as above was carried out by using 50 μl of dimethyl sulfoxide alone in place of the 50 μl of dimethyl sulfoxide solution containing an amino acid compound of the present invention.

For CC(C)C[C@H](NC(=O)[C@H](Cc1c[nH]cn1)NC(=O)C(CC(=O)N1CCOCC1)Cc1cccc2ccccc12)C(O)C(=O)NC(C)C (mixture of isomers) [(2RS, 3S)-3-{N-[2-(1-Naphthylmethyl)-3-(morpholinocarbonyl)propionyl]-L-histidyl}amino-2-hydroxy-5-methylhexanoylisopropylamide], the IC50 was 130 nM.
